Test results from US8093393B2, “Cationic ceramides, and analogs thereof, and their use for preventing or treating cancer” (MUSC Foundation for Research Development, priority 2004, dated 2012).

How the values were obtained:
[1] = system: UM-SCC-22A xenografts; conditions: SCID mice, n=6
[2] = system: UM-SCC-22A cells; assay: MTT cell survival assay and isobologram studies; assay type: cell-based, human; conditions: 1 μM with various concentrations of GMZ, 48 hr

Structure (SMILES): CCCCCCCCCCCCCCCC[n+]1ccccc1 [cetylpyridinium bromide, Cetylpyridinium bromide (CPB) monohydrate, reference compound]
- lethality / toxicity to xenograft-bearing mice [1]: lethal to all animals tested
- effect on the growth inhibition by GMZ [2]: did not have any role on the efficacy of GMZ
